Test results as given in PMC9098444.
These are yes or no findings as the source states them, for the method shown. In cells and extracts the contact can be indirect. Binding can be weak; no strength is given.

By UniProt entry, the sequences of proteins in these tests, tags left out. Where a name states a change or a piece, a line headed by the entry shows the natural chain unless it says otherwise.
UniProt Q8BLN6: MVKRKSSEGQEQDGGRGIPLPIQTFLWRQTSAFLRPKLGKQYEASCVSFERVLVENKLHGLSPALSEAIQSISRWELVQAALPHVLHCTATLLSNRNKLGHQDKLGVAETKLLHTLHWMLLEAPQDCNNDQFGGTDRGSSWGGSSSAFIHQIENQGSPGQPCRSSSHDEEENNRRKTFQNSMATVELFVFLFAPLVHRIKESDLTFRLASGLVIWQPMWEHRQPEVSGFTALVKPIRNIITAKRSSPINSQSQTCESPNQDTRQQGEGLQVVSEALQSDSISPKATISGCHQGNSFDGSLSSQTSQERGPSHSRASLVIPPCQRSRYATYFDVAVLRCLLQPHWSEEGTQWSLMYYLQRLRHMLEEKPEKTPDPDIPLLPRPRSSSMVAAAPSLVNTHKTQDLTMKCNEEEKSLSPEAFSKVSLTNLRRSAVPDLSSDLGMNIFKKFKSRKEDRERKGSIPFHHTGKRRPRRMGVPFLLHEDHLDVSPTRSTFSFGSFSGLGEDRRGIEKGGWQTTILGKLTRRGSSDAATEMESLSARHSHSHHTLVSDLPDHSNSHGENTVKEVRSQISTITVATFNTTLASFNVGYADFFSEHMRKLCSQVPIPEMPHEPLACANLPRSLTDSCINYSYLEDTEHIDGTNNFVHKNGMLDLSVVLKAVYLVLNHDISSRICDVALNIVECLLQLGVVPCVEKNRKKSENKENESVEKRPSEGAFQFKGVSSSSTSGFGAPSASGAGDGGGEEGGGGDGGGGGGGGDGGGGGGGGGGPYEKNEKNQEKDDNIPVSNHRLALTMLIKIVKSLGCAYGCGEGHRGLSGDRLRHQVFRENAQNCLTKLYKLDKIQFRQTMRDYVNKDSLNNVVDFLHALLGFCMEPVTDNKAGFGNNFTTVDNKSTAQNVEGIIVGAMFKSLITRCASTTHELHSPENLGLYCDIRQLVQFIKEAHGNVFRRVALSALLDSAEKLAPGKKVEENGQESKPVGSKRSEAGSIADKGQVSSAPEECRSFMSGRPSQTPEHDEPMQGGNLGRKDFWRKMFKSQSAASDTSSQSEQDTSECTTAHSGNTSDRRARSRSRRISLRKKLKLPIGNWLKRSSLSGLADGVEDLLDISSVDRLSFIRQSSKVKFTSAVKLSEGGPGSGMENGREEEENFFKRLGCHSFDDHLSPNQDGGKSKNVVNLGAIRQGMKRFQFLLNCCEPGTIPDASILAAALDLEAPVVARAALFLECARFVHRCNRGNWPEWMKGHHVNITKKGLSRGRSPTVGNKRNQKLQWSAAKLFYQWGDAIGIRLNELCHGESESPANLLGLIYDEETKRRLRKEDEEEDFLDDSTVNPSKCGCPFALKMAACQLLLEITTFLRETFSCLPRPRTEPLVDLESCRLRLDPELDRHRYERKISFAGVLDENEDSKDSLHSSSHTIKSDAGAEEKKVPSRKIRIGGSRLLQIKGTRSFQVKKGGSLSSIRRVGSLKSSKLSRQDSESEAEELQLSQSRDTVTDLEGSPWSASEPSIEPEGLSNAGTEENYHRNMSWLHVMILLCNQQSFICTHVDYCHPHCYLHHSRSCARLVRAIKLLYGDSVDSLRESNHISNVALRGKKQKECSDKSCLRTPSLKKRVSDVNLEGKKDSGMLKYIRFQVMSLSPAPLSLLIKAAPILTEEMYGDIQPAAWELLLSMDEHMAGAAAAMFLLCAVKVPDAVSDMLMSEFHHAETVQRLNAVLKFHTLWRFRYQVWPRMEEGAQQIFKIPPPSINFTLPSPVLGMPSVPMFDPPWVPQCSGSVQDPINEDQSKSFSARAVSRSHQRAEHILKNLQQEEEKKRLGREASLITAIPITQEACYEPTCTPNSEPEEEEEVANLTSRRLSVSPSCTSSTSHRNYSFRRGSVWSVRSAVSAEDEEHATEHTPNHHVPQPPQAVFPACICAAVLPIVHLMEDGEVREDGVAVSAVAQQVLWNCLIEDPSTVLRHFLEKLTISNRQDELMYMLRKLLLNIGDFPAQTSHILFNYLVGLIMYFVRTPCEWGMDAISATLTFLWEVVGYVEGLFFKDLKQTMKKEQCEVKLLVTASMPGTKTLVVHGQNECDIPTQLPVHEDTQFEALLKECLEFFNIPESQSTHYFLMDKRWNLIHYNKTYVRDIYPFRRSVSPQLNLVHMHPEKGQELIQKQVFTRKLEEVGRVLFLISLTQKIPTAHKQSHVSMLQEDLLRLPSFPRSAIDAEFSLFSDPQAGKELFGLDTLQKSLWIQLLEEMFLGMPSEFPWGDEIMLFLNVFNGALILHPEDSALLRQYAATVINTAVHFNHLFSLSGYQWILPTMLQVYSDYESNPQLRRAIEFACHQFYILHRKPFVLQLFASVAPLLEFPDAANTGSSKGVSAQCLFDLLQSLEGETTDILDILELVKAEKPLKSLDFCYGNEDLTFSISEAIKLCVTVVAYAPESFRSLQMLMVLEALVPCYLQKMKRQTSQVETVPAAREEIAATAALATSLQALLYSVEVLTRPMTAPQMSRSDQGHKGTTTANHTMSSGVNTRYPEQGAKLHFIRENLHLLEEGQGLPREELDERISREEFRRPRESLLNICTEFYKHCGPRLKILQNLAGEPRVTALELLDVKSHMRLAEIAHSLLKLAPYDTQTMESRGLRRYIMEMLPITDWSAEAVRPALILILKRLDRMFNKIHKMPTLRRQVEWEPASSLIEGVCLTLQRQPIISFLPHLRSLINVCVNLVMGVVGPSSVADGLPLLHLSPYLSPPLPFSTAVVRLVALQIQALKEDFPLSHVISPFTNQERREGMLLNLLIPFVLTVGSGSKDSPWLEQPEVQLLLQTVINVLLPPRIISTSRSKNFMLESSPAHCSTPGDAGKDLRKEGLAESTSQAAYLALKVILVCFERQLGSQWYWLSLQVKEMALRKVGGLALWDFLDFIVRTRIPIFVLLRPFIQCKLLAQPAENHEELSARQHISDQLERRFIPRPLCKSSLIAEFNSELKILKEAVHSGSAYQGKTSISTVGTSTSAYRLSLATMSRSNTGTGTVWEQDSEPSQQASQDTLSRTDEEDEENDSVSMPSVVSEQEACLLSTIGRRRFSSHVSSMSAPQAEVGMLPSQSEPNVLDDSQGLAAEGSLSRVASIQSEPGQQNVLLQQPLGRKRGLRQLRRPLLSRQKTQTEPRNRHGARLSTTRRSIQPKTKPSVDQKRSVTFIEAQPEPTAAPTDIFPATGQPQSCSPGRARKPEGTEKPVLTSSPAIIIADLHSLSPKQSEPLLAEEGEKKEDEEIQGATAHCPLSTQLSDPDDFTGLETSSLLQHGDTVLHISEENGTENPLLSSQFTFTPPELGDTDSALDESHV
UniProt Q0KK59: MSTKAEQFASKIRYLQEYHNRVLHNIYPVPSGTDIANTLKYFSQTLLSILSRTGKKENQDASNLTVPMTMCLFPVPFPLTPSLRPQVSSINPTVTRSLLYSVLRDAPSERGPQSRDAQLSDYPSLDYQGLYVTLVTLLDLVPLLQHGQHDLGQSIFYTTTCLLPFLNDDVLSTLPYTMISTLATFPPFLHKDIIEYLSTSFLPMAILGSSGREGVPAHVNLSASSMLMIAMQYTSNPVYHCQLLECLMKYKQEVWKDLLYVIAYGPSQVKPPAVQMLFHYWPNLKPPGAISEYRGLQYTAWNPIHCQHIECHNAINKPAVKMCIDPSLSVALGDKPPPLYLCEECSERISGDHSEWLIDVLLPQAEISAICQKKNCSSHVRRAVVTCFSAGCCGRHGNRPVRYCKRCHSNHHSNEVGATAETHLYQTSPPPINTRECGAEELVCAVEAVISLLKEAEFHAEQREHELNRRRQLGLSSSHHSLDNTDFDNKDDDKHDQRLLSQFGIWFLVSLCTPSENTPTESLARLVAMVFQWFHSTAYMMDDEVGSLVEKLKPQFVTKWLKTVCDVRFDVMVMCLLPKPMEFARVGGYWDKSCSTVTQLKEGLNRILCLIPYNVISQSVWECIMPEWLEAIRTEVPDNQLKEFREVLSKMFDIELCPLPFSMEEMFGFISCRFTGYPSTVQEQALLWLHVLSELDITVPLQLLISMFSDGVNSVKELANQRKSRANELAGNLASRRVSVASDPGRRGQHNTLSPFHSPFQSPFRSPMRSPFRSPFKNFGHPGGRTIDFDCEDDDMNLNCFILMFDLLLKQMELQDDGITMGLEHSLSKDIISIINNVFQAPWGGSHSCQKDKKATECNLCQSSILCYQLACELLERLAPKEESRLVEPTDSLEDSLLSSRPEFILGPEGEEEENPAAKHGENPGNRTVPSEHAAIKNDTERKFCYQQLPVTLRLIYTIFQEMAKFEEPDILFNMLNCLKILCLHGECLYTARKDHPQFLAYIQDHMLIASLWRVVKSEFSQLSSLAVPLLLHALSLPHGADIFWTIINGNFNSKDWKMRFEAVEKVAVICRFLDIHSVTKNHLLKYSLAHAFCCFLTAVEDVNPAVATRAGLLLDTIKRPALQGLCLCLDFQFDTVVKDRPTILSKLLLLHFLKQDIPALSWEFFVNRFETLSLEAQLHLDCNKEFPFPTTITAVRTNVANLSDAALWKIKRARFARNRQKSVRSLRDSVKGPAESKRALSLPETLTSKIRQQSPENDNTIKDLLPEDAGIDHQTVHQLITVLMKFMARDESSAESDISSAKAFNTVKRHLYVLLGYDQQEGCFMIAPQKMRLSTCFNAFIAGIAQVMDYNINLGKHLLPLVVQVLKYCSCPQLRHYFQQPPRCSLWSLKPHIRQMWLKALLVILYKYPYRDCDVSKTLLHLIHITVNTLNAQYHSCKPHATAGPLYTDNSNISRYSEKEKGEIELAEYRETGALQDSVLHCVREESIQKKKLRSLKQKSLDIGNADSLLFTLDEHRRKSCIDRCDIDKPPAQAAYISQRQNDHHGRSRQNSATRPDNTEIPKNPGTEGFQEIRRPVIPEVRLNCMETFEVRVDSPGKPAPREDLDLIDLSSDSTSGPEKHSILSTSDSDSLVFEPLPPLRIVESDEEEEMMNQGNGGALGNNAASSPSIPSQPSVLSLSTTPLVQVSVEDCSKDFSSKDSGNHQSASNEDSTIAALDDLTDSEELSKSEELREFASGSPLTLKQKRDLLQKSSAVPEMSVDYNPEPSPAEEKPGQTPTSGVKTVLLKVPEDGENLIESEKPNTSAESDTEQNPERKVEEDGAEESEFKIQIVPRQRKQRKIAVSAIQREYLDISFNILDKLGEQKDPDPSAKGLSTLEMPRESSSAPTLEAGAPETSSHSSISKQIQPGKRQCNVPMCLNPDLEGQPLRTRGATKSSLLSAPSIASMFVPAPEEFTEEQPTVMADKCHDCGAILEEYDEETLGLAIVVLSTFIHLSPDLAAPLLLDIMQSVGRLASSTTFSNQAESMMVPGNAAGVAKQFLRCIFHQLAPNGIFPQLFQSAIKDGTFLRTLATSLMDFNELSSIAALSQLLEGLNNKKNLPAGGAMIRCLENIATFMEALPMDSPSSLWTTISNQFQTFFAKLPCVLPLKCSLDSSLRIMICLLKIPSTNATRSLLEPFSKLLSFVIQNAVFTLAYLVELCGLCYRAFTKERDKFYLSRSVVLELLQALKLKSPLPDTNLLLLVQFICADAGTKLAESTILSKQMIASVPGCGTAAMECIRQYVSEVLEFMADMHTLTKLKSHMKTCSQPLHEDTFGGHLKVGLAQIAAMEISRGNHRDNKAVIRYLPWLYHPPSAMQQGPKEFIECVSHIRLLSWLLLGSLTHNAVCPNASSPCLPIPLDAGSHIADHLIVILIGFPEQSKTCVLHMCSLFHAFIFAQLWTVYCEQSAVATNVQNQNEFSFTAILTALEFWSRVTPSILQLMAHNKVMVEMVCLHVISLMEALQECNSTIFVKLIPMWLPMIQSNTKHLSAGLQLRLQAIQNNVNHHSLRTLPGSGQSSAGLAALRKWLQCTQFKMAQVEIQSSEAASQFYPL

Target: GFP-strep tagged mouse UNC80 (mouse) (UniProt Q8BLN6)
Test: co-purification on Streptactin affinity beads; HA-UNC79 and GFP-strep UNC80 co-expressed in FreeStyle 293F cells by BacMam viruses and purified together by the strep tag of UNC80

Substance: mouse UNC79 with an N-terminal HA tag (from UniProt Q0KK59)
- binding: binds
